Assay results: doi:10.1101/2021.03.03.433744
Results are given in words; binding and its absence hold for the method and conditions named. In cells and extracts the contact can be indirect. Some entries that bind do so weakly or less than the wild type. Where a sequence is shown, tags or fusion partners need not be part of it.

T1: OsCEBiP-3×FLAG (rice (Nipponbare)) (UniProt Q8H8C7)
T1 sequence: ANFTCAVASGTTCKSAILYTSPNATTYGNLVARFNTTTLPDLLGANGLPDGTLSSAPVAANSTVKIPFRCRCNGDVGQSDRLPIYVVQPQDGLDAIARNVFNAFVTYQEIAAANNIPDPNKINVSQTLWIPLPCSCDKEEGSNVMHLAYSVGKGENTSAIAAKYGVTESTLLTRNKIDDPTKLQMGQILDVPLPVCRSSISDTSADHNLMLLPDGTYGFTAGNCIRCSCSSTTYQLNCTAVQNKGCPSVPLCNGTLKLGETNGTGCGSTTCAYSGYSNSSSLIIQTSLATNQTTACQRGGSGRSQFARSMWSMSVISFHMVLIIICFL

T2: OsCERK1-3×FLAG (rice (Nipponbare)), A0A0P0
T2 chain: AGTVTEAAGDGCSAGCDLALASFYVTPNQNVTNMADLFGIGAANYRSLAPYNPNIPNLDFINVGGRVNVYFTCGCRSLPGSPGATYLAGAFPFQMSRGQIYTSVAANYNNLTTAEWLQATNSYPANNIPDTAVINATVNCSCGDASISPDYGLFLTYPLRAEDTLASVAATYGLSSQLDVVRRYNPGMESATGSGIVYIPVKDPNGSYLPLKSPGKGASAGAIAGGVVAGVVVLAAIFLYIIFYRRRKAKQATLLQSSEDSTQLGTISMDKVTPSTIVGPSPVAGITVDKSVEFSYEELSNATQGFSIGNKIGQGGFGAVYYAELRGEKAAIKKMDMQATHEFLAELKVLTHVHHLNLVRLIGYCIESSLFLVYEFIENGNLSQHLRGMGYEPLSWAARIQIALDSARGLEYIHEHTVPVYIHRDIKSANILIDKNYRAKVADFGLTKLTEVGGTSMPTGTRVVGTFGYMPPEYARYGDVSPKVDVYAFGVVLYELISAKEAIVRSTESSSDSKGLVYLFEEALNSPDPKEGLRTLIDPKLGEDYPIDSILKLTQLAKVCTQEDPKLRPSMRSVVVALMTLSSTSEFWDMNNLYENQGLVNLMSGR

B1: OsCEBiP-3×FLAG (receptor, UniProt Q8H8C7 29-356)
chain: ANFTCAVASGTTCKSAILYTSPNATTYGNLVARFNTTTLPDLLGANGLPDGTLSSAPVAANSTVKIPFRCRCNGDVGQSDRLPIYVVQPQDGLDAIARNVFNAFVTYQEIAAANNIPDPNKINVSQTLWIPLPCSCDKEEGSNVMHLAYSVGKGENTSAIAAKYGVTESTLLTRNKIDDPTKLQMGQILDVPLPVCRSSISDTSADHNLMLLPDGTYGFTAGNCIRCSCSSTTYQLNCTAVQNKGCPSVPLCNGTLKLGETNGTGCGSTTCAYSGYSNSSSLIIQTSLATNQTTACQRGGSGRSQFARSMWSMSVISFHMVLIIICFL
B2: OsCERK1-3×FLAG (receptor, UniProt A0A0P0XII1 19-624)
chain: AGTVTEAAGDGCSAGCDLALASFYVTPNQNVTNMADLFGIGAANYRSLAPYNPNIPNLDFINVGGRVNVYFTCGCRSLPGSPGATYLAGAFPFQMSRGQIYTSVAANYNNLTTAEWLQATNSYPANNIPDTAVINATVNCSCGDASISPDYGLFLTYPLRAEDTLASVAATYGLSSQLDVVRRYNPGMESATGSGIVYIPVKDPNGSYLPLKSPGKGASAGAIAGGVVAGVVVLAAIFLYIIFYRRRKAKQATLLQSSEDSTQLGTISMDKVTPSTIVGPSPVAGITVDKSVEFSYEELSNATQGFSIGNKIGQGGFGAVYYAELRGEKAAIKKMDMQATHEFLAELKVLTHVHHLNLVRLIGYCIESSLFLVYEFIENGNLSQHLRGMGYEPLSWAARIQIALDSARGLEYIHEHTVPVYIHRDIKSANILIDKNYRAKVADFGLTKLTEVGGTSMPTGTRVVGTFGYMPPEYARYGDVSPKVDVYAFGVVLYELISAKEAIVRSTESSSDSKGLVYLFEEALNSPDPKEGLRTLIDPKLGEDYPIDSILKLTQLAKVCTQEDPKLRPSMRSVVVALMTLSSTSEFWDMNNLYENQGLVNLMSGR
B3: OsCERK1-3×FLAG, A0A0P0XII1 19-624 (receptor)
chain: AGTVTEAAGDGCSAGCDLALASFYVTPNQNVTNMADLFGIGAANYRSLAPYNPNIPNLDFINVGGRVNVYFTCGCRSLPGSPGATYLAGAFPFQMSRGQIYTSVAANYNNLTTAEWLQATNSYPANNIPDTAVINATVNCSCGDASISPDYGLFLTYPLRAEDTLASVAATYGLSSQLDVVRRYNPGMESATGSGIVYIPVKDPNGSYLPLKSPGKGASAGAIAGGVVAGVVVLAAIFLYIIFYRRRKAKQATLLQSSEDSTQLGTISMDKVTPSTIVGPSPVAGITVDKSVEFSYEELSNATQGFSIGNKIGQGGFGAVYYAELRGEKAAIKKMDMQATHEFLAELKVLTHVHHLNLVRLIGYCIESSLFLVYEFIENGNLSQHLRGMGYEPLSWAARIQIALDSARGLEYIHEHTVPVYIHRDIKSANILIDKNYRAKVADFGLTKLTEVGGTSMPTGTRVVGTFGYMPPEYARYGDVSPKVDVYAFGVVLYELISAKEAIVRSTESSSDSKGLVYLFEEALNSPDPKEGLRTLIDPKLGEDYPIDSILKLTQLAKVCTQEDPKLRPSMRSVVVALMTLSSTSEFWDMNNLYENQGLVNLMSGR

Assays:
[1] = molecular target: T1, OsCEBiP-3×FLAG (rice (Nipponbare)); experiment: co-IP
[2] = molecular target: T2, OsCERK1-3×FLAG (rice (Nipponbare)), …; experiment: co-IP; conditions: remark: other sources report otherwise

Row | Binder | binding [1] | binding [2]
1 | B1 | binds | 
2 | B2 | binds | 
3 | B3 |  | binds
